We go through two molecules from patent US20230287146A1.

By UniProt entry, the sequences of proteins in these tests, tags left out. Where a name states a change or a piece, a line headed by the entry shows the natural chain unless it says otherwise.
UniProt P51654: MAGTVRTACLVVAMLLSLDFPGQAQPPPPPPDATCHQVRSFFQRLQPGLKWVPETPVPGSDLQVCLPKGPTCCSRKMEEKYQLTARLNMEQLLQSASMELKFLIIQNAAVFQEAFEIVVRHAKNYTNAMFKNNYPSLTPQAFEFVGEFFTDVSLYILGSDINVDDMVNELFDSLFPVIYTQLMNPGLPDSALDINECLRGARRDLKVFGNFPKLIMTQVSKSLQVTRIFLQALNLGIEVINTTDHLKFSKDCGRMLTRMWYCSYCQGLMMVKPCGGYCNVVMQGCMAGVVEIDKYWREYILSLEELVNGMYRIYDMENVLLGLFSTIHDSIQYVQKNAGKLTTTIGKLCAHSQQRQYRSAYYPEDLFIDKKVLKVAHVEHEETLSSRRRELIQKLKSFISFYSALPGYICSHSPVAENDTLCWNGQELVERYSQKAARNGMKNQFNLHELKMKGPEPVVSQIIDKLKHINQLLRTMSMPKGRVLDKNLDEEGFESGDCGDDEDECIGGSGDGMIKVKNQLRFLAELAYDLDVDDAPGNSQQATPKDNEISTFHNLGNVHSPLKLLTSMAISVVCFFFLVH

Experiment [1] concerns the target human Glypican-3 (GPC3) (human) (UniProt P51654). The experiment in a line: flow cytometry, bivalent mAb on GPC3 positive cells. On the technique in general: In flow cytometry, cells or beads pass a laser one at a time.
For experiment [2] the target is unchanged. The experiment in a line: flow cytometry on Hep G2 cells, compared with AD84L3-1/N.

Results are given in words; binding and its absence hold for the method and conditions named. A result given as binding can be weak or reduced; the word gives no strength.

B1: AD84 anti-GPC3 bivalent mAb (antibody, V domains shown)
VH: EVQLVESGGGLVQPGGSLKLSCAASGFTFNTYAMNWVRQAPGKGLEWVGRIRSKYNNYATYYADSVKDRFTISRDDSKNTAYLQMNSLKTEDTAVYYCVRHGNFGNSYVSWFAYWGQGTLVTVSS
VL: EIVLTQSPGTLSLSPGERATLSCRASQKVTNRELAWYQQKPGQAPRLLIYGATTKATGIPDRFSGSGSGTDFTLTISRLEPEDFAVYYCQQWALSPRGWVFGQGTKVEIK
With B1, the binding entry in experiment [1] is listed as “binds”.

B2: ERY974 (bispecific antibody, human IgG4 S228P, kappa, N297A)
heavy 1: QVQLVQSGAEVKKPGASVTVSCKASGYTFTDYEMHWIRQPPGEGLEWIGAIDGPTPDTAYSEKFKGRVTLTADKSTSTAYMELSSLTSEDTAVYYCTRFYSYTYWGQGTLVTVSSASTKGPSVFPLAPCSRSTSESTAALGCLVKDYFPEPVTVSWNSGALTSGVHTFPAVLQSSGLYSLSSVVTVPSSSLGTQTYTCNVDHKPSNTKVDKRVESKYGPPCPPCPAPEFRGGPKVFLFPPKPKDTLMISRTPEVTCVVVDVSQEDPEVQFNWYVDGVEVHNAKTKPREEQFASTYRVVSVLTVLHQDWLNGKEYKCKVSNKGLPSSIEKTISKAKGQPREPQVYTLPPSQEEMTKNQVSLTCLVKGFYPSDIAVEWQSNGQTENNYKTTPPVLDSDGSFFLYSKLTVDKSRWQEGNVFSCSVMHEALHNHYTQESLSLSP
heavy 2: QVQLVESGGGVVQPGGSLRLSCAASGFTFSNAWMHWVRQAPGKGLEWVAQIKDKSQNYATYVAESVKGRFTISRADSKNSIYLQMNSLKTEDTAVYYCRYVHYAAGYGVDIWGQGTTVTVSSASTKGPSVFPLAPCSRSTSESTAALGCLVKDYFPEPVTVSWNSGALTSGVHTFPAVLQSSGLYSLSSVVTVPSSSLGTKTYTCNVDHKPSNTKVDKRVESKYGPPCPPCPAPEFRGGPKVFLFPPKPKDTLMISRTPEVTCVVVDVSQEDPEVQFNWYVDGVEVHNAKTKPREEQFASTYRVVSVLTVLHQDWLNGKEYKCKVSNKGLPSSIEKTISKAKGQPREPQVYTLPPSQKEMTKNQVSLTCLVKGFYPSDIAVEWESNGQPENNYKTTPPVLDSDGSFFLYSKLTVDKSRWQEGNVFSCSVMHEALHNRYTQKSLSLSP
light: DIVMTQSPLSLPVTPGEPASISCRSSQPLVHSNRNTYLHWYQQKPGQAPRLLIYKVSNRFSGVPDRFSGSGSGTDFTLKISRVEAEDVGVYYCGQGTQVPYTFGQGTKLEIKRTVAAPSVFIFPPSDEQLKSGTASVVCLLNNFYPREAKVQWKVDNALQSGNSQESVTEQDSKDSTYSLSSTLTLSKADYEKHKVYACEVTHQGLSSPVTKSFNRGEC
On to B2, for which, in experiment [2], the binding result is given as “binds”.
